Literature values, collected in US20090233299A1, “Physiogenomic Method for Predicting Statin Injury to Muscle and Muscle Side Effects” (GENOMAS, INC., priority 2005, published 2009).
At least one compound was matched to its structure with a doubt left.

System: high-sensitivity C-reactive protein (CRP), IL-1β, and CD40L
Settings: Wang et al. 2003; cited from earlier work

Row | Structure (SMILES) | plasma levels of high-sensitivity C-reactive protein (CRP), IL-1β, and CD40L
1 | CC(C)OC(=O)C(C)(C)Oc1ccc(C(=O)c2ccc(Cl)cc2)cc1 [fenofibrate] | markedly reduce
2 | CCC(C)(C)C(=O)O[C@H]1C[C@@H](C)C=C2C=C[C@H](C)[C@H](CC[C@@H]3C[C@@H](O)CC(=O)O3)[C@H]21 [simvastatin] | markedly reduce
